No constants are given. Whether binding was seen depends on the method and setting. In cells and extracts the contact can be indirect. Some binding calls cover weakened binding; strength is not graded here. Tags and fused reporters may be left off the sequences shown.
T1: Flag-GRAF1 (GRAF1-overexpression plasmid with Flag tag attached in N terminal of GRAF1), in HEK293T cells (UniProt Q9UNA1)
T1 sequence: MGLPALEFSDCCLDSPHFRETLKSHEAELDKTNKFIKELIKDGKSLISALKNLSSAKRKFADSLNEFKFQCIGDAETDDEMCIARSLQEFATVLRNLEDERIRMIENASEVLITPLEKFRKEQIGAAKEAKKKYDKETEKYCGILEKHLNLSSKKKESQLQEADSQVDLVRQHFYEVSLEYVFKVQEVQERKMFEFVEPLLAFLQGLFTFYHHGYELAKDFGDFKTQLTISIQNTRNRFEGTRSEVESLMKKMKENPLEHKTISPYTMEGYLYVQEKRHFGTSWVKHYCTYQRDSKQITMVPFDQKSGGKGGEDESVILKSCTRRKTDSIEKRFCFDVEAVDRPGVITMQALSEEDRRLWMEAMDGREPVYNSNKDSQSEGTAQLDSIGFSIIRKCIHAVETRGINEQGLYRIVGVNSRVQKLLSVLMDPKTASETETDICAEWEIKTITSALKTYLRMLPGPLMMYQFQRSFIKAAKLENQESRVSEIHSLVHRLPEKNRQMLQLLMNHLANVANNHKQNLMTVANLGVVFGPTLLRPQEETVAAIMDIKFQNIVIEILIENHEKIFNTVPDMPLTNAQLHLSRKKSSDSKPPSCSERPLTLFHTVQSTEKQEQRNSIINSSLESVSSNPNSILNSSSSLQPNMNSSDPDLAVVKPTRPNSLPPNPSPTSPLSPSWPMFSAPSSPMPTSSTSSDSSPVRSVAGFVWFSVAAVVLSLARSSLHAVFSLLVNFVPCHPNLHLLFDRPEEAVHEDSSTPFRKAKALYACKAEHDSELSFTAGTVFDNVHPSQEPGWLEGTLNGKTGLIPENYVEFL

T2: CEMIP-myc (CEMIP cDNA with c-myc tag attached in C terminal of CEMIP), in HEK293T cells (UniProt Q8WUJ3)
T2 sequence: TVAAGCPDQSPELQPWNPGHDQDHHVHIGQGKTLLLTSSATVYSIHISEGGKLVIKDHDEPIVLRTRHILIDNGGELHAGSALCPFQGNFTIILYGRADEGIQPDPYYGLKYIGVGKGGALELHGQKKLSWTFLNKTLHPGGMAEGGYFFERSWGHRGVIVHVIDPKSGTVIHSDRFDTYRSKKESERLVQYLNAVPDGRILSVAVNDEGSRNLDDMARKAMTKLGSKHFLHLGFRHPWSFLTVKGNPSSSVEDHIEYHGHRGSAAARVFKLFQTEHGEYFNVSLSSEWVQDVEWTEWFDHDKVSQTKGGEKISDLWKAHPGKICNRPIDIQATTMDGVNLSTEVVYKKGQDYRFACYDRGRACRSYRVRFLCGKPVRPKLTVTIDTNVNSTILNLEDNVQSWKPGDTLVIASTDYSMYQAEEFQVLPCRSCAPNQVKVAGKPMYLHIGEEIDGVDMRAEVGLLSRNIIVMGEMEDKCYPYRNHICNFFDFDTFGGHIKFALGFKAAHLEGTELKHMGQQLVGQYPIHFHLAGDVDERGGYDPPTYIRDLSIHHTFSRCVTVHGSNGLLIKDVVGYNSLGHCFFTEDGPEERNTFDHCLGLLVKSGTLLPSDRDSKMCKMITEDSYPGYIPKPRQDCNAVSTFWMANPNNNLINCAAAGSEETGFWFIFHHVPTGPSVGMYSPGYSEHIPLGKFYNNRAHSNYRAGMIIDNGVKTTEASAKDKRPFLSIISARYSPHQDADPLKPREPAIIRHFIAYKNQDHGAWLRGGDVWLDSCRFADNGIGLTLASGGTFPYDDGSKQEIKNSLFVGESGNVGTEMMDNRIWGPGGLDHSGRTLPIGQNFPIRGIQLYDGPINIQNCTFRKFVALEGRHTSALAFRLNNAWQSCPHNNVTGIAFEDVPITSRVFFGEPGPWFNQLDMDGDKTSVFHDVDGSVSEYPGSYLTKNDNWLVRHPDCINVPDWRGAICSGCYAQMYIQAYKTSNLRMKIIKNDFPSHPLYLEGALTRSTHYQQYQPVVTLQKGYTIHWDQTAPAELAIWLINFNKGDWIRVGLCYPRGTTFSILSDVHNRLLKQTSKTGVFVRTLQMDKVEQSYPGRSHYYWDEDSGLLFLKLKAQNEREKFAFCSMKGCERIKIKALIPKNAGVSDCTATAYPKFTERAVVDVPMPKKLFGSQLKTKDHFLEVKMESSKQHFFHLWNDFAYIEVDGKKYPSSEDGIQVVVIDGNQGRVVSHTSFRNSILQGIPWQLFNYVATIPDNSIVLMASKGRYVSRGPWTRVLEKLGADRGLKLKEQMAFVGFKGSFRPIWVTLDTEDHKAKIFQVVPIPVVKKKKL


Columns and labels:
[1] = molecular target: T1, Flag-GRAF1 (GRAF1-overexpression plasmid with Flag tag attached in N terminal of GRAF1), in HEK293T cells; assay: co-IP; HEK293T cells co-transfected with the indicated constructs, whole cell lysate, NETN buffer, Protein G agarose beads, overnight at 4 °C, western blot
[2] = molecular target: T2, CEMIP-myc (CEMIP cDNA with c-myc tag attached in C terminal of CEMIP), in HEK293T cells; assay: as above

Binder | binding [1] | binding [2]
CEMIP-myc-∆3: 572–819aa (domain or fragment, UniProt Q8WUJ3 572-819) DPPTYIRDLSIHHTFSRCVTVHGSNGLLIKDVVGYNSLGHCFFTEDGPEERNTFDHCLGLLVKSGTLLPSDRDSKMCKMITEDSYPGYIPKPRQDCNAVSTFWMANPNNNLINCAAAGSEETGFWFIFHHVPTGPSVGMYSPGYSEHIPLGKFYNNRAHSNYRAGMIIDNGVKTTEASAKDKRPFLSIISARYSPHQDADPLKPREPAIIRHFIAYKNQDHGAWLRGGDVWLDSCRFADNGIGLTLAS | binds | 
CEMIP-myc-∆2 + 3: 295–819aa (domain or fragment, UniProt Q8WUJ3 295-819) AAARVFKLFQTEHGEYFNVSLSSEWVQDVEWTEWFDHDKVSQTKGGEKISDLWKAHPGKICNRPIDIQATTMDGVNLSTEVVYKKGQDYRFACYDRGRACRSYRVRFLCGKPVRPKLTVTIDTNVNSTILNLEDNVQSWKPGDTLVIASTDYSMYQAEEFQVLPCRSCAPNQVKVAGKPMYLHIGEEIDGVDMRAEVGLLSRNIIVMGEMEDKCYPYRNHICNFFDFDTFGGHIKFALGFKAAHLEGTELKHMGQQLVGQYPIHFHLAGDVDERGGYDPPTYIRDLSIHHTFSRCVTVHGSNGLLIKDVVGYNSLGHCFFTEDGPEERNTFDHCLGLLVKSGTLLPSDRDSKMCKMITEDSYPGYIPKPRQDCNAVSTFWMANPNNNLINCAAAGSEETGFWFIFHHVPTGPSVGMYSPGYSEHIPLGKFYNNRAHSNYRAGMIIDNGVKTTEASAKDKRPFLSIISARYSPHQDADPLKPREPAIIRHFIAYKNQDHGAWLRGGDVWLDSCRFADNGIGLTLAS | binds | 
CEMIP-myc-∆2: 295–591aa (domain or fragment, UniProt Q8WUJ3 295-591) AAARVFKLFQTEHGEYFNVSLSSEWVQDVEWTEWFDHDKVSQTKGGEKISDLWKAHPGKICNRPIDIQATTMDGVNLSTEVVYKKGQDYRFACYDRGRACRSYRVRFLCGKPVRPKLTVTIDTNVNSTILNLEDNVQSWKPGDTLVIASTDYSMYQAEEFQVLPCRSCAPNQVKVAGKPMYLHIGEEIDGVDMRAEVGLLSRNIIVMGEMEDKCYPYRNHICNFFDFDTFGGHIKFALGFKAAHLEGTELKHMGQQLVGQYPIHFHLAGDVDERGGYDPPTYIRDLSIHHTFSRCVT | binds | 

More lines, now with the values ahead:

binding [1] | binding [2] | Binder
binds |  | CEMIP-myc (CEMIP cDNA with c-myc tag attached in C terminal of CEMIP), in HEK293T cells (protein, UniProt Q8WUJ3 31-1361) TVAAGCPDQSPELQPWNPGHDQDHHVHIGQGKTLLLTSSATVYSIHISEGGKLVIKDHDEPIVLRTRHILIDNGGELHAGSALCPFQGNFTIILYGRADEGIQPDPYYGLKYIGVGKGGALELHGQKKLSWTFLNKTLHPGGMAEGGYFFERSWGHRGVIVHVIDPKSGTVIHSDRFDTYRSKKESERLVQYLNAVPDGRILSVAVNDEGSRNLDDMARKAMTKLGSKHFLHLGFRHPWSFLTVKGNPSSSVEDHIEYHGHRGSAAARVFKLFQTEHGEYFNVSLSSEWVQDVEWTEWFDHDKVSQTKGGEKISDLWKAHPGKICNRPIDIQATTMDGVNLSTEVVYKKGQDYRFACYDRGRACRSYRVRFLCGKPVRPKLTVTIDTNVNSTILNLEDNVQSWKPGDTLVIASTDYSMYQAEEFQVLPCRSCAPNQVKVAGKPMYLHIGEEIDGVDMRAEVGLLSRNIIVMGEMEDKCYPYRNHICNFFDFDTFGGHIKFALGFKAAHLEGTELKHMGQQLVGQYPIHFHLAGDVDERGGYDPPTYIRDLSIHHTFSRCVTVHGSNGLLIKDVVGYNSLGHCFFTEDGPEERNTFDHCLGLLVKSGTLLPSDRDSKMCKMITEDSYPGYIPKPRQDCNAVSTFWMANPNNNLINCAAAGSEETGFWFIFHHVPTGPSVGMYSPGYSEHIPLGKFYNNRAHSNYRAGMIIDNGVKTTEASAKDKRPFLSIISARYSPHQDADPLKPREPAIIRHFIAYKNQDHGAWLRGGDVWLDSCRFADNGIGLTLASGGTFPYDDGSKQEIKNSLFVGESGNVGTEMMDNRIWGPGGLDHSGRTLPIGQNFPIRGIQLYDGPINIQNCTFRKFVALEGRHTSALAFRLNNAWQSCPHNNVTGIAFEDVPITSRVFFGEPGPWFNQLDMDGDKTSVFHDVDGSVSEYPGSYLTKNDNWLVRHPDCINVPDWRGAICSGCYAQMYIQAYKTSNLRMKIIKNDFPSHPLYLEGALTRSTHYQQYQPVVTLQKGYTIHWDQTAPAELAIWLINFNKGDWIRVGLCYPRGTTFSILSDVHNRLLKQTSKTGVFVRTLQMDKVEQSYPGRSHYYWDEDSGLLFLKLKAQNEREKFAFCSMKGCERIKIKALIPKNAGVSDCTATAYPKFTERAVVDVPMPKKLFGSQLKTKDHFLEVKMESSKQHFFHLWNDFAYIEVDGKKYPSSEDGIQVVVIDGNQGRVVSHTSFRNSILQGIPWQLFNYVATIPDNSIVLMASKGRYVSRGPWTRVLEKLGADRGLKLKEQMAFVGFKGSFRPIWVTLDTEDHKAKIFQVVPIPVVKKKKL
 | binds | Flag-GRAF1 (GRAF1-overexpression plasmid with Flag tag attached in N terminal of GRAF1), in HEK293T cells (protein, UniProt Q9UNA1 1-814) MGLPALEFSDCCLDSPHFRETLKSHEAELDKTNKFIKELIKDGKSLISALKNLSSAKRKFADSLNEFKFQCIGDAETDDEMCIARSLQEFATVLRNLEDERIRMIENASEVLITPLEKFRKEQIGAAKEAKKKYDKETEKYCGILEKHLNLSSKKKESQLQEADSQVDLVRQHFYEVSLEYVFKVQEVQERKMFEFVEPLLAFLQGLFTFYHHGYELAKDFGDFKTQLTISIQNTRNRFEGTRSEVESLMKKMKENPLEHKTISPYTMEGYLYVQEKRHFGTSWVKHYCTYQRDSKQITMVPFDQKSGGKGGEDESVILKSCTRRKTDSIEKRFCFDVEAVDRPGVITMQALSEEDRRLWMEAMDGREPVYNSNKDSQSEGTAQLDSIGFSIIRKCIHAVETRGINEQGLYRIVGVNSRVQKLLSVLMDPKTASETETDICAEWEIKTITSALKTYLRMLPGPLMMYQFQRSFIKAAKLENQESRVSEIHSLVHRLPEKNRQMLQLLMNHLANVANNHKQNLMTVANLGVVFGPTLLRPQEETVAAIMDIKFQNIVIEILIENHEKIFNTVPDMPLTNAQLHLSRKKSSDSKPPSCSERPLTLFHTVQSTEKQEQRNSIINSSLESVSSNPNSILNSSSSLQPNMNSSDPDLAVVKPTRPNSLPPNPSPTSPLSPSWPMFSAPSSPMPTSSTSSDSSPVRSVAGFVWFSVAAVVLSLARSSLHAVFSLLVNFVPCHPNLHLLFDRPEEAVHEDSSTPFRKAKALYACKAEHDSELSFTAGTVFDNVHPSQEPGWLEGTLNGKTGLIPENYVEFL

Reference: PMC9971195
